Test results as given in patent US7422745 (IXSYS, dated 2008).

B1: LM609 grafted antibody variant Y100 (Fab, V domains shown)
VH: QVQLVESGGGVVQPGRSLRLSCAASGFTFSSYDMSWVRQAPGKGLEWVAKVSSGGGSTYYLDTVQGRFTISRDNSKNTLYLQMNSLRAEDTAVYYCARHNYGSYAYWGQGTTVTVSS
VL: EIVLTQSPATLSLSPGERATLSCQASQSISNHLHWYQQRPGQAPRLLIRYRSQSISGIPARFSGSGSGTDFTLTISSLEPEDFAVYYCQQSGSWPHTFGGGTKVEIK
B2: LM609 grafted antibody variant Y101 (Fab, V domains shown)
VH: B1 VH with Y104F, A105Y
VL: B1 VL

Molecular target: integrin αvβ3 (human vitronectin receptor), purified from human placenta (human)
Experiment: ELISA titration of bacterial cell lysate containing Fab on immobilized αvβ3, detection with goat anti-human kappa-alkaline phosphatase

| Binder | binding |
| --- | --- |
| B1 | binds |
| B2 | binds |

Positions count from the first letter of the chain named. No constants are given. Whether binding was seen depends on the method and setting. Binding calls can cover weak binding; strength is not graded here.
